This test deals with Salmonella enterica serovar Typhimurium SL1344. In words: bacterial growth OD600 after 18 h with compound and polymyxin B; higher = more bacterial growth (less inhibition). Conditions: 50 µM, Mueller-Hinton broth.

The other results are listed elsewhere or left out. Values are raw readings; no control value is given beside them.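 Primary screen: polymyxin B was added at a level permeabilizing Salmonella outer membranes while sparing inner membranes. DMSO wells, both with and without polymyxin B, established maximum growth. Plate-to-plate variation meant each plate was ranked on its own, and the lowest-OD600 compounds were selected as hits.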

Data on 31 compounds can be found in the supplement of paper PMC12889115.

Turning to `COc1cccc(-c2cnnc(NCc3cc(C(C)(C)C)[nH]n3)n2)c1`, the “bacterial growth OD600” value (polymyxin B 0.75 µg/mL) turned out to be 0.588.

For `CCC(=O)C1CCCN(C(=O)C2CCCN(c3nc(C)c4ccc(OC)cc4n3)C2)C1` (stereo unspecified), where the note is “polymyxin B 0.75 µg/mL”, the “bacterial growth OD600” value was 0.017.

For the compound `O=C(CCC1CCCC1)N1CCC(C2(c3ccccn3)NC(=O)N(CCc3cccs3)C2=O)CC1` (stereo unspecified), the “bacterial growth OD600” value (polymyxin B 0.75 µg/mL) stood at 0.032.

Regarding `CCN(CCOC)c1ccc(-c2nc(Cc3ccccc3)no2)cn1`, the “bacterial growth OD600” value (polymyxin B 0.75 µg/mL) came out at 0.589.

Regarding `COc1ccc(C(=O)N2CCN(C(=O)CCC3(Cc4ccc(Cl)cc4)CCC(=O)N3)CC2)cc1` (stereo unspecified), the “bacterial growth OD600” value (polymyxin B 0.75 µg/mL) was 0.851.

In the case of `Cc1nc(N2CCC(C(=O)NCCc3ccccc3)CC2)nc2ccc(C(C)C)cc12`, where the note is “polymyxin B 0.75 µg/mL”, the “bacterial growth OD600” value came to 0.812.

On to `CN(C(=O)c1ccn(C)n1)C(Cc1ccccc1)C1CCN(C(=O)c2cc3ccccc3oc2=O)CC1` (stereo unspecified), for which the “bacterial growth OD600” value (polymyxin B 0.75 µg/mL) stood at 0.968.

With `COC(=O)CCC(=O)N1CCC(Oc2ccc(C(=O)NC3CCCC3)cc2Cl)CC1`, the “bacterial growth OD600” value (polymyxin B 1 µg/mL) stood at 1.13.

Regarding `CCOC(=O)C1(CCCc2ccccc2)CCCN(C(=O)C2=NNC(=O)CC2)C1` (stereo unspecified), the “bacterial growth OD600” value (polymyxin B 1 µg/mL) was 1.26.

In the case of `Cn1cc(CCC(=O)N2CCOC(Cc3ccccc3Cl)C2)cn1` (stereo unspecified), under “polymyxin B 0.75 µg/mL”, the “bacterial growth OD600” value was determined as 0.956.

Consider `COCc1ccc(CN(Cc2cccnc2)CC2CCCN(C3CCCCC3)C2)o1` (stereo unspecified), for which, for the setting “polymyxin B 0.75 µg/mL”, the “bacterial growth OD600” value amounted to 0.757.

As for `CCOC(=O)C1(CCc2ccccc2)CCN(Cc2ccc(COC)o2)CC1`, the “bacterial growth OD600” value (polymyxin B 1 µg/mL) stood at 0.866.

Consider `C/C=C(\C)CN1CCC(n2nccc2NC(=O)CC(C)C)CC1`, for which, for the setting “polymyxin B 0.75 µg/mL”, the “bacterial growth OD600” value was 0.724.

Consider `Cc1cccc(C(=O)NC2CC(C)(C)Cc3nc(N4CCOCC4)ncc32)n1` (stereo unspecified), for which the “bacterial growth OD600” value (polymyxin B 0.75 µg/mL) amounted to 0.826.

On to `CCOc1ccc(CNC2CCCN(c3ncccn3)C2)cc1Cl` (stereo unspecified), for which the “bacterial growth OD600” value (polymyxin B 1 µg/mL) was 0.876.

Take `Cc1noc(C)c1CCCNC(=O)c1ccc(N2CCN(CC3CC3)CC2)nc1`: the “bacterial growth OD600” value (polymyxin B 1 µg/mL) worked out at 1.2.

Take `Cc1ccn(CC(=O)N2CCCC(CCc3ccccc3C)C2)n1` (stereo unspecified): for the setting “polymyxin B 0.75 µg/mL”, the “bacterial growth OD600” value amounted to 0.003.

Consider `CN(C)c1ncccc1CNCc1ccc2c(c1)OCCO2`, for which the “bacterial growth OD600” value (polymyxin B 1 µg/mL) amounted to 0.995.

Take `O=C1CCC(C(=O)N2CCOCC2)CN1Cc1ccc(Cl)cc1` (stereo unspecified): the “bacterial growth OD600” value (polymyxin B 1 µg/mL) was found to be 0.953.

Regarding `CN(c1ncccc1CNS(C)(=O)=O)C1CCCCC1`, where the note is “polymyxin B 1 µg/mL”, the “bacterial growth OD600” value was 0.

For `Cc1ccc(OCCN(C)C(=O)C2CC23CCN(Cc2ccoc2)CC3)cc1` (stereo unspecified), the “bacterial growth OD600” value (polymyxin B 0.75 µg/mL) was found to be 0.891.

For `CCOC(=O)C1(CC2CCCCO2)CCN(C(=O)/C=C/c2cccs2)CC1` (stereo unspecified), the “bacterial growth OD600” value (polymyxin B 1 µg/mL) stood at 0.64.

For the compound `CCc1ccc(CN(C)C(=O)C2CCC(=O)N(CCCN3CCOCC3)C2)nc1` (stereo unspecified), the “bacterial growth OD600” value (polymyxin B 1 µg/mL) came out at 0.953.

In the case of `O=C1N[C@H](C(=O)N2CCC3(CC2)CC3C(=O)NCCC2=CCCCC2)CS1` (stereo partly specified), the “bacterial growth OD600” value (polymyxin B 0.75 µg/mL) amounted to 0.91.

With `COCc1ccc(CN2CCC(C(=O)Nc3cccc(-c4ccn[nH]4)c3)CC2)o1`, under “polymyxin B 0.75 µg/mL”, the “bacterial growth OD600” value turned out to be 0.799.

`CC1CN(Cc2cccc3ncccc23)Cc2cc(Cl)ccc2O1` (stereo unspecified): the “bacterial growth OD600” value (polymyxin B 0.75 µg/mL) was determined as 0.002.

Consider `COc1ccccc1OCC(=O)NCC1CCCN(Cc2cccc(C)c2)C1` (stereo unspecified), for which, for the setting “polymyxin B 1 µg/mL”, the “bacterial growth OD600” value was 0.827.

On to `O=C(NCc1ccncn1)c1csc2nc(-c3ccc(C(F)(F)F)cc3)cn12`, for which the “bacterial growth OD600” value (polymyxin B 0.75 µg/mL) came out at 0.562.

In the case of `O=C(CCC1(Cc2ccc(Cl)cc2)CCC(=O)N1)NCC1CC1` (stereo unspecified), where the note is “polymyxin B 0.75 µg/mL”, the “bacterial growth OD600” value is 0.84.

For `COCCC(=O)N1CCC(Oc2ccc(C(=O)NCc3cnc(C)cn3)cc2)CC1`, the “bacterial growth OD600” value (polymyxin B 1 µg/mL) was determined as 0.836.

On to `CCCN1CCC(NCc2cccnc2Oc2ccccc2F)CC1`, for which, where the note is “polymyxin B 1 µg/mL”, the “bacterial growth OD600” value worked out at 0.905.
